# Experimental data: PubChem BioAssay AID2685 (National Center for Advancing Translational Sciences (NCATS), 2010)
# The other results are listed elsewhere or left out. Further columns of the screen follow, without active or inactive calls. The list favours compounds with an active or inconclusive main result. Words in brackets tell the shape of the fitted curve; partial curves, single points and poor fits give uncertain potencies.
# Assay: qHTS Assay for Lipid Storage Modulators in Drosophila S3 Cells;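 as to cell number change: cells counted by Cell Tracker Red CMTPX staining in the red channel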
# Conditions: BODIPY lipid droplet fluorescence, 18-24 h; for cell number change: measured here: cell count max response, cells fed with added oleic acid
# Outline: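 Drosophila S3 cells got compounds at several concentrations plus oleic acid (400 uM solution). Laser-scanning cytometry with 488 nm excitation read lipid droplets at 500-530 nm and cells at 575-640 nm. Percent activity was relative to 20 uM Triacsin C.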
# [1] = measured here: cell number channel AC50, cells fed with added oleic acid
# [2] = measured here: lipid fluorescence (Fed channel) AC50, cells fed with added oleic acid
compound,measurement,setting,value
COCCCn1c(=NC(=O)c2ccncc2)c(C#N)cc2c(=O)n3cccc(C)c3nc21,AC50,[1],"0.411 µM [rising, full curve]"
same,AC50,[2],"0.366 µM [rising, full curve]"
Cc1ccc(S(=O)(=O)N2CCC(C(=O)Nc3nnc(-c4ccco4)s3)CC2)cc1,cell number change,,18.4%
CC1(C)CC(NC(=O)c2ccc(Br)o2)CC(C)(C)N1,cell number change,,-26.7%
same,AC50,[2],"29.1 µM [rising, partial curve]"
CCCCOc1ncnc2c1[nH]c1ccc(F)cc12,cell number change,,-33.4%
same,AC50,[1],"18.4 µM [falling, single point]"
same,AC50,[2],"18.4 µM [falling, single point]"
Cc1ccc(NC(=O)CN2C(=O)C(=O)N(C3CCCC3)C2=O)c(Cl)c1,cell number change,,-1.29%
same,AC50,[1],"0.461 µM [falling, partial curve, poor fit]"
COc1cc(C(=O)NCC(=O)OC(C)C(=O)Nc2ncc(Cl)cc2Cl)cc(OC)c1OC (stereo not drawn),cell number change,,21.1%
CC(O)CNc1nc2c(c(=O)n(Cc3ccc(Cl)c(Cl)c3)c(=O)n2C)n1C (stereo not drawn),cell number change,,-27%
same,AC50,[1],"0.0731 µM [falling, full curve, poor fit]"
same,AC50,[2],"0.326 µM [falling, partial curve, poor fit]"
O=C1CCCC(O)=C1C(C#Cc1ccccc1)C1=C(O)CCCC1=O,AC50,[2],"0.146 µM [falling, full curve, poor fit]"
Cc1cccc(NC(=O)CSc2nnc(NC(=O)CN3CCOCC3)s2)c1,cell number change,,-8.73%
same,AC50,[2],"0.58 µM [falling, single point]"
CCc1cccc(CC)c1NC(=S)NCc1ccc2[nH]c(C)cc2c1,cell number change,,-19%
same,AC50,[2],"14.6 µM [falling, single point]"
CCC(=O)N1CCc2cc(S(=O)(=O)NC(Cc3ccccc3)C(=O)NC3CCCCC3)ccc21 (stereo not drawn),cell number change,,10.2%
same,AC50,[2],"13 µM [rising, partial curve]"
CC(C)(C)c1ccc(C(=O)CSc2n[nH]c(=O)[nH]c2=O)cc1,AC50,[2],"2.06 µM [falling, partial curve]"
O=c1[nH]c(C2CCCN(S(=O)(=O)c3ccccc3)C2)nc2c1nnn2Cc1ccc2c(c1)OCCO2 (stereo not drawn),cell number change,,-9.73%
CCOC(=O)c1sc2nc(CSCC(=O)OCc3ccc(C(=O)OC)o3)[nH]c(=O)c2c1C,cell number change,,-31.9%
same,AC50,[1],"32.6 µM [falling, single point]"
same,AC50,[2],"0.13 µM [falling, full curve, poor fit]"
CCOc1ccc(CC(=O)N2CCC3(CC2)NCCc2[nH]cnc23)cc1,AC50,[2],"29.1 µM [rising, single point]"
O=C(CSc1ccccc1)N1CCN(S(=O)(=O)c2cccs2)CC1,AC50,[1],"0.731 µM [rising, full curve]"
same,AC50,[2],"6.51 µM [rising, single point]"
O=C1c2ccccc2C(=O)N1CCc1nc(-c2ccncc2)no1,cell number change,,-15.8%
same,AC50,[1],"0.651 µM [falling, full curve, poor fit]"
same,AC50,[2],"0.146 µM [rising, full curve, poor fit]"
CC(C)Oc1cccc(OCCN2C(=O)c3ccccc3C2=O)c1,cell number change,,187%
same,AC50,[1],"29.1 µM [rising, partial curve]"
CN1CCN(C(=O)c2c(NC(=O)c3ccco3)sc3c2CCC(C(C)(C)C)C3)CC1 (stereo not drawn),cell number change,,-0.834%
CCOC(=O)C(NC(=O)CC)(Nc1ccc(S(=O)(=O)Nc2cc(C)on2)cc1)C(F)(F)F (stereo not drawn),cell number change,,-0.922%
same,AC50,[2],"9.2 µM [falling, partial curve]"
CCOc1ccccc1NC(=O)c1cc(CC(C)C)oc1C,AC50,[1],"0.13 µM [falling, full curve, poor fit]"
same,AC50,[2],"0.13 µM [falling, full curve, poor fit]"
O=C(NCCSc1c[nH]c2ccccc12)c1ccco1,cell number change,,-20.2%
same,AC50,[2],"20.6 µM [falling, single point]"
CCN(CC)S(=O)(=O)c1ccc(/C(O)=C(\C#N)c2nc3ccccc3n2C)cc1,cell number change,,-10.9%
same,AC50,[1],"0.259 µM [rising, full curve, poor fit]"
same,AC50,[2],"4.61 µM [rising, partial curve]"
Cc1ccc(-n2cc3c(-c4cccc(Br)c4)nnc(C)c3n2)cc1,cell number change,,12.8%
same,AC50,[2],"5.8 µM [rising, partial curve]"
Cc1nn(-c2ccccc2)c2c1C(O)n1c(nc3ccccc31)S2 (stereo not drawn),cell number change,,-90.8%
same,AC50,[1],"29.1 µM [falling, single point]"
same,AC50,[2],"11.6 µM [falling, single point]"
CN1CCN(CC#CC(C)(O)C2CC3C=CC2C3)CC1 (stereo not drawn),cell number change,,-40.4%
same,AC50,[1],"0.00461 µM [falling, full curve, poor fit]"
O=c1c(-c2nc3ccccc3s2)cccn1Cc1ccccc1,cell number change,,32.5%
same,AC50,[1],"23.1 µM [rising, single point]"
Cc1ccc(-c2ccccc2[C@@H]2C[C@H]3CN(C)C(=O)[C@]34CCCN24)o1,cell number change,,31.1%
same,AC50,[1],"23.1 µM [rising, single point]"
CCOc1cc(/C=N/NC(=O)c2ccncc2)ccc1OC(=O)c1ccccc1,AC50,[2],"17.8 µM [falling, partial curve]"
CCOC(=O)Cc1cnc(NC(=O)CSc2nc(C(C)C)cc(=O)[nH]2)s1,cell number change,,7.89%
c1ccc(C(c2ccccc2)c2ccn[nH]2)cc1,cell number change,,-6.14%
same,AC50,[2],"14.6 µM [falling, partial curve, poor fit]"
O=C1Nc2ccccc2C(O)(C(=O)NCc2ccc3c(c2)OCO3)N1c1ccccc1 (stereo not drawn),cell number change,,9.8%
same,AC50,[2],"29.1 µM [rising, single point]"
C=CCOc1ccccc1C1C2=C(CC(C)(C)CC2=O)Nc2c1c(=O)n(C)c(=O)n2C (stereo not drawn),cell number change,,-0.928%
O=Cc1ccc(C(=O)OCC(=O)N2CCCC2)cc1,cell number change,,-3.6%
same,AC50,[2],"29.1 µM [falling, single point]"
O=C(Nc1nnc(SCc2ccc(Cl)cc2)s1)C1CC(=O)N(Cc2ccccc2)C1 (stereo not drawn),cell number change,,-19.6%
same,AC50,[2],"0.0291 µM [falling, full curve, poor fit]"
Cc1oc(-c2ccc(Cl)cc2)nc1CN1CCC(C(=O)N2CCN(Cc3ccccc3)CC2)CC1,cell number change,,2.21%
same,AC50,[2],"0.116 µM [rising, full curve, poor fit]"
CCCNc1nc2nc3ccccn3c(=O)c2cc1C(=O)NCCN1CCOCC1,cell number change,,11.8%
Cc1cccnc1NC(=O)Cn1nc(C)c([N+](=O)[O-])c1C,AC50,[1],"1.03 µM [rising, partial curve]"
same,AC50,[2],"1.46 µM [rising, partial curve]"
CCCC1CC(c2csc(N)n2)CCO1 (stereo not drawn),cell number change,,10.4%
same,AC50,[2],"29.1 µM [rising, single point]"
COCCCn1c(SCC(=O)NCc2ccco2)nc2sc3c(c2c1=O)CCC3,cell number change,,-27.9%
same,AC50,[2],"4.11 µM [falling, full curve, poor fit]"
CCC1Nc2ncnc(N3CCN(c4ccccn4)CC3)c2N(Cc2ccc(Cl)cc2)C1=O (stereo not drawn),cell number change,,-31.4%
same,AC50,[1],"6.51 µM [falling, partial curve]"
same,AC50,[2],"29.1 µM [falling, partial curve, poor fit]"
O=C(NC1=NCCS1)C1CCCCC1,cell number change,,-19.2%
same,AC50,[1],"0.731 µM [rising, single point]"
CNC(=O)CSc1nc2c([nH]c3ccccc32)c(=O)n1CCOC,cell number change,,12.3%
same,AC50,[2],"0.116 µM [rising, full curve, poor fit]"
Oc1ccc(Nc2nc(-c3ccc(O)cc3)cs2)cc1,cell number change,,-152%
same,AC50,[1],"29.1 µM [falling, partial curve]"
same,AC50,[2],"29.1 µM [falling, partial curve]"
CCOc1cccc(-c2cc(C(=O)Nc3ccon3)c3ccccc3n2)c1,cell number change,,-17.5%
Cc1cc(NC(=O)Cn2c(=O)c3c(ncn3CCC(C)C)n(Cc3ccccc3)c2=O)no1,cell number change,,-16.9%
same,AC50,[2],"2.59 µM [falling, partial curve, poor fit]"
CCN(CC)P1(=O)OC(c2cc(OC)c(OC)c(OC)c2)=Nc2c1c(C)nn2-c1ccccc1 (stereo not drawn),AC50,[1],"0.116 µM [rising, single point]"
same,AC50,[2],"0.411 µM [rising, partial curve]"
O=C(Nc1cccc(-c2nn[nH]n2)c1)c1ccc(Br)s1,cell number change,,3.23%
same,AC50,[2],"20.6 µM [rising, single point]"
O=c1[nH]oc2cc(Cl)ccc12,cell number change,,16%
same,AC50,[2],"0.58 µM [rising, full curve, poor fit]"
CN(C)S(=O)(=O)N1CCN(CC(=O)Nc2ccc(Br)cc2)CC1,cell number change,,31.1%
same,AC50,[1],"7.31 µM [rising, partial curve, poor fit]"
CCOc1ccc(/C=N/NC(=S)Nc2c(C)cccc2C)cc1,cell number change,,-13.5%
same,AC50,[1],"0.146 µM [rising, full curve]"
Cc1ccc(-n2ncc3c2CC(C)(C)CC3NC(=O)Cc2c(C)noc2C)cc1 (stereo not drawn),cell number change,,-17.3%
same,AC50,[2],"9.2 µM [falling, single point]"
C=CCc1cc(C(=O)N2CCCCC2)ccc1O,AC50,[1],"0.00517 µM [falling, full curve, poor fit]"
same,AC50,[2],"6.51 µM [falling, single point]"
CCCc1ccc(-c2c(C)sc(N)c2C#N)cc1,cell number change,,-71.3%
same,AC50,[1],"14.6 µM [falling, partial curve]"
same,AC50,[2],"14.6 µM [falling, partial curve]"
COc1ccc(C(CNC(=O)c2cccc(NS(=O)(=O)c3ccc(C)c(F)c3)c2)N(C)C)cc1 (stereo not drawn),AC50,[2],"5.8 µM [rising, partial curve]"
N=c1sc2ccccc2n1-c1ccccc1,cell number change,,-25.2%
same,AC50,[2],"29.1 µM [falling, single point]"
CCCN(CCC)C(C)C(=O)NCC1(c2ccccc2)CCCC1 (stereo not drawn),cell number change,,-19.1%
same,AC50,[2],"0.00651 µM [falling, full curve, poor fit]"
C/C(=N\NC(=S)NCc1ccccc1)C1CCCCC1,cell number change,,56.3%
same,AC50,[1],"0.058 µM [rising, full curve]"
same,AC50,[2],"6.51 µM [rising, partial curve, poor fit]"

# Laid out differently: results already given.
compound	measurement	setting	value
CCCC1CC(c2csc(N)n2)CCO1 (stereo not drawn)	AC50	[2]	29.1 µM [rising, single point]
COCCCn1c(SCC(=O)NCc2ccco2)nc2sc3c(c2c1=O)CCC3	cell number change		-27.9%

# A different layout for part of the listing above:
compound | measurement | setting | value
CCCCOc1ncnc2c1[nH]c1ccc(F)cc12 | AC50 | [2] | 18.4 µM [falling, single point]
Cc1ccc(NC(=O)CN2C(=O)C(=O)N(C3CCCC3)C2=O)c(Cl)c1 | cell number change |  | -1.29%
same | AC50 | [1] | 0.461 µM [falling, partial curve, poor fit]
